# Results are given in words; binding and its absence hold for the method and conditions named. Binding seen in cells or lysates may run through a third protein. Here binding means that the protein was enriched with, or labelled near, the bait; the list need not be complete. Sequences can lack the tags named with a protein.
# Protein sequences, listed by entry. Tags and fused reporters are not part of them.
# UniProt Q969G3: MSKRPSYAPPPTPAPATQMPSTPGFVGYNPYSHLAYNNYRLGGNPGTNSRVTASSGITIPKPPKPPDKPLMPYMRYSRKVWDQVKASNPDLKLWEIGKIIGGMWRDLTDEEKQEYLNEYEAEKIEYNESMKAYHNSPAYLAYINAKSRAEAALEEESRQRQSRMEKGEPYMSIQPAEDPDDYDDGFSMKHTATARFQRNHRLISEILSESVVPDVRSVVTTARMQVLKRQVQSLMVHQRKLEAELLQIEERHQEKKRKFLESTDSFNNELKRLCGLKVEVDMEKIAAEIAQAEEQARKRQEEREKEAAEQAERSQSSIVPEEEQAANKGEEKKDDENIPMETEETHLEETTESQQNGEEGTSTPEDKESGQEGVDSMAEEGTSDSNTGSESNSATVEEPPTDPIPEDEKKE
# UniProt O60675: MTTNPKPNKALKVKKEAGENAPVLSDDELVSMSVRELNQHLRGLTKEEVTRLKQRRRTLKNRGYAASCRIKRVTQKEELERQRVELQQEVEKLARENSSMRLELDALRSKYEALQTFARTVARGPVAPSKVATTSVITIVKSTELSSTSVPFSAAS
# UniProt Q9ULX9: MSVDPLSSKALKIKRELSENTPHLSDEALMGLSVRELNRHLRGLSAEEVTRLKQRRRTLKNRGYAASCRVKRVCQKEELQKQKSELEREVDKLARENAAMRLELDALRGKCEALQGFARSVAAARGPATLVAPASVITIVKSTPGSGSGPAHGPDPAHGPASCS
# UniProt Q09472: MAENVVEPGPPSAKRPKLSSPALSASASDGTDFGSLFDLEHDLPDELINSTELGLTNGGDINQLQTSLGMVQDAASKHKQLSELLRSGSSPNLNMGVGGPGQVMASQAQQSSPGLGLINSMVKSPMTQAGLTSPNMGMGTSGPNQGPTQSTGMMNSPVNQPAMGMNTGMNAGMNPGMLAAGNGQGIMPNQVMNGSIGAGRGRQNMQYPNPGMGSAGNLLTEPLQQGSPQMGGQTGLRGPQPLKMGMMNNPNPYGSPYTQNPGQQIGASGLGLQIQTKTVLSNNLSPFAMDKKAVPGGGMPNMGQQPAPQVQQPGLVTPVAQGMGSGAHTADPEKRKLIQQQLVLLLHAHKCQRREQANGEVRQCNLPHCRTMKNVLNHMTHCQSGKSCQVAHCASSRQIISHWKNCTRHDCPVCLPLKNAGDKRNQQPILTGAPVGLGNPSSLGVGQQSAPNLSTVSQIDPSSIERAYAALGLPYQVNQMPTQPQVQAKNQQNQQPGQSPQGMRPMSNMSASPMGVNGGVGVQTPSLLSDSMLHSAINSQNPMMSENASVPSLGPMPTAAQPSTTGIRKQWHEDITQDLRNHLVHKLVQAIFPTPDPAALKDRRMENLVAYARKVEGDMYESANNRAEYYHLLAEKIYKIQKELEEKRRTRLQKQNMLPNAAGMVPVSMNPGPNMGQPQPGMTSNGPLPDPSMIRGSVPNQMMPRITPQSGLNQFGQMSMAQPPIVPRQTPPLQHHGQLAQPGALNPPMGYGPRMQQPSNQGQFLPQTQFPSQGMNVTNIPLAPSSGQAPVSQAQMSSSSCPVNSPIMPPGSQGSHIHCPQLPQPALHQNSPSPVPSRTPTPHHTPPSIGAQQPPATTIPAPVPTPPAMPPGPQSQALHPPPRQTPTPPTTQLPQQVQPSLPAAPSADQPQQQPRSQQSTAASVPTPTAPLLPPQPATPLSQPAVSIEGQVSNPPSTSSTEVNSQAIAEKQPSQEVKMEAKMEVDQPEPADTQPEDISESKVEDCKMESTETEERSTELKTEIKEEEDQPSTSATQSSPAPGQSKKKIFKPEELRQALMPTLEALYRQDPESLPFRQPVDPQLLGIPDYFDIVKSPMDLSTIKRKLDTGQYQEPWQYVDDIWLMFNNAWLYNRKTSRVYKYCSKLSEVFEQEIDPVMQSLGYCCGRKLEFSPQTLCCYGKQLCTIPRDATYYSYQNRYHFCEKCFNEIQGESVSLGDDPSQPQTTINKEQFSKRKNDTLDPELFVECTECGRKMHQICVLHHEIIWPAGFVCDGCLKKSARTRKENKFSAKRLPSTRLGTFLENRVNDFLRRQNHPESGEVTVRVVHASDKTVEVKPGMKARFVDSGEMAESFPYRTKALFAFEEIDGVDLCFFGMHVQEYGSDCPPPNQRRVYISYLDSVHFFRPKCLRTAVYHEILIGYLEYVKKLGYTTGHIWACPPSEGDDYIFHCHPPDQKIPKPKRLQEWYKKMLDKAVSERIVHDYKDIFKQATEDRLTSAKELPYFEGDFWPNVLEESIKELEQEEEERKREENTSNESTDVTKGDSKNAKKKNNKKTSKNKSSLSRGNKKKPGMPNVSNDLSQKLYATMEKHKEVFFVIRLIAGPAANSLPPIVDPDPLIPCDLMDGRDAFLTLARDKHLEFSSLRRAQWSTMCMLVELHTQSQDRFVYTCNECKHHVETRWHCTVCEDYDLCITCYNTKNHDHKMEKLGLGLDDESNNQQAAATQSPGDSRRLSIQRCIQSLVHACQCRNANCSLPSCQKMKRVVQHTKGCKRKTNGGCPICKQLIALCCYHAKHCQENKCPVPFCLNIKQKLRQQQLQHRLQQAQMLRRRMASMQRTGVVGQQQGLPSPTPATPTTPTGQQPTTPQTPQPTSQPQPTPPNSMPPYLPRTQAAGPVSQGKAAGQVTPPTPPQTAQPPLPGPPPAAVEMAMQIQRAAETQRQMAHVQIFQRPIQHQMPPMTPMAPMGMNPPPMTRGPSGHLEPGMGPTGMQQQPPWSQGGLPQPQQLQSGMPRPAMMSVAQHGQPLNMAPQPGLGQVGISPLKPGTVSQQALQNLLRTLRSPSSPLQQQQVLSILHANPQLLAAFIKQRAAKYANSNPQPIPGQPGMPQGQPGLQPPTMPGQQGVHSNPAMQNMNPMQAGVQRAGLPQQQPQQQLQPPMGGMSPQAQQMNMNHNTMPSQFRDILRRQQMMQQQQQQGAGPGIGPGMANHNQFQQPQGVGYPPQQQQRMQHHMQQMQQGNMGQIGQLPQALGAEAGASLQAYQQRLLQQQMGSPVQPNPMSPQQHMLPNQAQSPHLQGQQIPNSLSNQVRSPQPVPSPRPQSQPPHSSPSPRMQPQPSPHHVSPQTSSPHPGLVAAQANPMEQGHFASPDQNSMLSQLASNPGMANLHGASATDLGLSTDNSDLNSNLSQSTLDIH
# UniProt Q92793: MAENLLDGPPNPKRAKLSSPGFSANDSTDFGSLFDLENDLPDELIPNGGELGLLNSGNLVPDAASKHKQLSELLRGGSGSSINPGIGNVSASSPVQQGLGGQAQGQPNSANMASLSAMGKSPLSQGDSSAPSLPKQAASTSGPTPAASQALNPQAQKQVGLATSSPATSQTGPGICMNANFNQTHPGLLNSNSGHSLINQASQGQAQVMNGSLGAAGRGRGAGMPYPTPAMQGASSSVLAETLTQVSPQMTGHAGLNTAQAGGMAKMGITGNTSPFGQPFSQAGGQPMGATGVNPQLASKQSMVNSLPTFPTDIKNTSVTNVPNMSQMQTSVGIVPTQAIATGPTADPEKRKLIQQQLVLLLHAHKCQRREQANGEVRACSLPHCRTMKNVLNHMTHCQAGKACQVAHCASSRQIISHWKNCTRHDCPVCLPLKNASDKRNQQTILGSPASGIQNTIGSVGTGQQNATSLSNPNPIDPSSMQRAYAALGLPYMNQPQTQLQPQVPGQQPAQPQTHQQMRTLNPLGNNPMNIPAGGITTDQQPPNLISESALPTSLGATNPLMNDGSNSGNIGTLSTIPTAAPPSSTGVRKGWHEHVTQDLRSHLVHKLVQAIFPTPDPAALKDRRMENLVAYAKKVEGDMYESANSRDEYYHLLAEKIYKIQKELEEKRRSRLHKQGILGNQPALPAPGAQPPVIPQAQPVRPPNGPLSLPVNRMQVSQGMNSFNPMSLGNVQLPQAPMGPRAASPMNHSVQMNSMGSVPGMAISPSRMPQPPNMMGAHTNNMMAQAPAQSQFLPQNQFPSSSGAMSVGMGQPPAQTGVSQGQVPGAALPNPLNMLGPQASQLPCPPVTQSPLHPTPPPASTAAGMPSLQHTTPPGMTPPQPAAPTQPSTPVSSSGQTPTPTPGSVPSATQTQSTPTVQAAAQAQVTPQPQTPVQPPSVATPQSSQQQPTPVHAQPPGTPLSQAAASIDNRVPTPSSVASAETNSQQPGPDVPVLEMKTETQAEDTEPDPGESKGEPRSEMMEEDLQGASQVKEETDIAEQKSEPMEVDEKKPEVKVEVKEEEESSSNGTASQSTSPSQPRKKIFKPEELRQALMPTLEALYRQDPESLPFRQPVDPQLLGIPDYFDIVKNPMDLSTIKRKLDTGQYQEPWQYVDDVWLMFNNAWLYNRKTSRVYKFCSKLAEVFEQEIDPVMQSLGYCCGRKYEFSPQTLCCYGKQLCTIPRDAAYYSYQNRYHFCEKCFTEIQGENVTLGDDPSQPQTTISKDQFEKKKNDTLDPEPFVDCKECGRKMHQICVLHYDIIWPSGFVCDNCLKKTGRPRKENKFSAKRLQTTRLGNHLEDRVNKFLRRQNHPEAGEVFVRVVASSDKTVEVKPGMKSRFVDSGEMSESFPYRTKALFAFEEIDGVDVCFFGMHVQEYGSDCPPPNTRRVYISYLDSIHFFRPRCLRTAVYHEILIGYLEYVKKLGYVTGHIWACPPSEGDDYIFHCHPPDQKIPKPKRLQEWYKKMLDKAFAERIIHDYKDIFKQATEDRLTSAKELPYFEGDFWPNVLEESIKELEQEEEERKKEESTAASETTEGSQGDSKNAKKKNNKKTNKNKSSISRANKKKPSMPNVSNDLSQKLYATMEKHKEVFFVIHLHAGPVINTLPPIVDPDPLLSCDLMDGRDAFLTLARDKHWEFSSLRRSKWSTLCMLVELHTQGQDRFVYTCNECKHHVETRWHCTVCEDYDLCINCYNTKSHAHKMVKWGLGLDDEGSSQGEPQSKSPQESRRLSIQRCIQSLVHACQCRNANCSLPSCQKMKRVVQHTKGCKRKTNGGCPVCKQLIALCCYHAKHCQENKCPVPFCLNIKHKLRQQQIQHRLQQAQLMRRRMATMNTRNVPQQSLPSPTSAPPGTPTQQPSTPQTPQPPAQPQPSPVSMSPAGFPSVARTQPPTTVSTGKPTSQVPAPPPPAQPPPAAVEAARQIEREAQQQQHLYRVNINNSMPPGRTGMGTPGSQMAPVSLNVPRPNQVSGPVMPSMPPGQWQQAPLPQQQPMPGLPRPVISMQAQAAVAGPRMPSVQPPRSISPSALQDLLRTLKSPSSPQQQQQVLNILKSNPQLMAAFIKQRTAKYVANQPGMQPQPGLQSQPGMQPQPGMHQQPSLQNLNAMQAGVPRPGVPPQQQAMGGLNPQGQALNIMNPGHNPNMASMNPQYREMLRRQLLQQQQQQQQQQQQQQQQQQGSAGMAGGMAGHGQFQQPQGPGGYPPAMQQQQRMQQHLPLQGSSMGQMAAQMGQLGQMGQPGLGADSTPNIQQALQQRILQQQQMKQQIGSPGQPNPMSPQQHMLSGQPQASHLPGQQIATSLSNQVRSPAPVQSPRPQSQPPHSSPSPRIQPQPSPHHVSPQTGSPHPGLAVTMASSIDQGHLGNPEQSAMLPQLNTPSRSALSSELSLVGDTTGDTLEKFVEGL
# UniProt Q9Y297: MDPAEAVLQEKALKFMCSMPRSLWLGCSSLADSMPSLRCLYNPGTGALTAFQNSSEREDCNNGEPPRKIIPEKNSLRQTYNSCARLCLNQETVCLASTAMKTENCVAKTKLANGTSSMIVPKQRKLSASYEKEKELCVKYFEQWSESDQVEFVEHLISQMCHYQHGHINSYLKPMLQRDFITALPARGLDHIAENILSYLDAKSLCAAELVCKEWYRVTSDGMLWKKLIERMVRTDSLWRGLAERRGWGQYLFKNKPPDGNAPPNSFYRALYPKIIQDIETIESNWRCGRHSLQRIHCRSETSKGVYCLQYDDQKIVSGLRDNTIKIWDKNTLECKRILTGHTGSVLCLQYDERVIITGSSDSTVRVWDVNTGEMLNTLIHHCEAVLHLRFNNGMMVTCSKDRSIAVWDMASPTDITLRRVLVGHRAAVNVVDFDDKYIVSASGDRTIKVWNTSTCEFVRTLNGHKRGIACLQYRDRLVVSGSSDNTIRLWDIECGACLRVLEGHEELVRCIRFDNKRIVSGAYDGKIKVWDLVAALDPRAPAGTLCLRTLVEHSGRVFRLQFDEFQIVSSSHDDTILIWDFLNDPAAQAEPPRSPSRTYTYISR
# Molecular target: T1, FLAG-tagged WT NRF2, stably expressed in A549 (TRE3G-driven, dox-induced) (UniProt Q16236)
# T1 sequence: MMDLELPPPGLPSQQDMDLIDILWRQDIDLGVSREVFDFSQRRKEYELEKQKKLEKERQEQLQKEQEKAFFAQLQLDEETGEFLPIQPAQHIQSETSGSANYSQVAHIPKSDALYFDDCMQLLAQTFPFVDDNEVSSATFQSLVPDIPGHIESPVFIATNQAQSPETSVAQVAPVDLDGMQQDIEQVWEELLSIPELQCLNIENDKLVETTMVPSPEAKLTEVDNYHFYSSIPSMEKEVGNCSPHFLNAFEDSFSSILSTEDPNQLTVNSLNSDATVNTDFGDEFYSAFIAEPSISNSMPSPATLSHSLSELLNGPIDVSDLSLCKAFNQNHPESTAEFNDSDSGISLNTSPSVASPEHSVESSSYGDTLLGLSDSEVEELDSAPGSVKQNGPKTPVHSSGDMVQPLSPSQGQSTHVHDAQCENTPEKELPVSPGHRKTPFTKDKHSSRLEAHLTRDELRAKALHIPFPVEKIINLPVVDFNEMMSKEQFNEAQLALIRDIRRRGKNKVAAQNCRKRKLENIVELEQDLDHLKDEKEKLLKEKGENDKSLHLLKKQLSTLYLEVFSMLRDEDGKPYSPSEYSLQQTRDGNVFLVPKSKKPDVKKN
# Test: affinity purification with mass spectrometry; FLAG IP (anti-FLAG M2 magnetic beads, overnight at 4 °C) from nuclear lysates of A549 cells stably expressing TRE3G-driven Renilla luciferase, WT NRF2 or Neh4/5mut, 24 h after doxycycline; 8 mg lysate per IP; on-bead digestion, TMT; four replicates
row,Substance,binding
1,"SMARCE1, A549 nuclear extract (from UniProt Q969G3 1-411)",binds
2,"MAFK (sMAF protein), A549 nuclear extract (from UniProt O60675 1-156)",binds
3,"MAFF (sMAF protein), A549 nuclear extract (from UniProt Q9ULX9 1-164)",binds
4,"p300, A549 nuclear extract (from UniProt Q09472 1-2414)",binds

# More lines, now with the values ahead:
row,binding,Substance
1,binds,"CBP, A549 nuclear extract (from UniProt Q92793 1-2442)"
2,binds,"FBXW1A (bTrCP-1), A549 nuclear extract (from UniProt Q9Y297 1-605)"

# Reference: paper PMC12187939
